By Papp is commonly meant the rate of passage across a membrane or cell layer, normalised by area and donor concentration. Read a low Papp as poor permeation.

This data set is described as follows: in vitro. The following applies: pig, PAMPA, pH 7.4. An excerpt:
The above-referenced commercial compounds, phosphate buffer at pH=7.4 (PBS), Ethanol and dodecane were obtained from the commercial houses Sigma, Acros organics, Merck, Aldrich and Fluka, respectively. […] To filter the samples, PVDF membrane filters were used (30 mm diameter, 0.45 μm pore size) from the company Symta. The equipment used to measure UV absorbance in 96-well plates was a Thermoscientific Multiskan spectrum.
Ten reference compounds were selected, whose blood-brain barrier passage is known, in order to validate the experiment. […] The solutions were filtered. Next, 180 μL of a PBS/EtOH (70/30) solution were added to each well of the acceptor plate. The donor plate was impregnated with 4 μL of a pig brain lipid solution dissolved in dodecane (20 mg mL^−1). After 5 minutes, 180 μL of solution of each compound were added on this plate. Of the compounds whose penetration in the central nervous system is being evaluated, between 1-2 mg were taken and dissolved in 1,500 μL of EtOH and 3,500 μL of PBS phosphate buffer (pH=7.4), filtered and added to the 96-well donor plate. […] The concentration and absorbance of both the commercial compounds and the synthesised derivatives that were evaluated in the acceptor and donor plates were determined using a UV absorbance reader. Each sample was analysed at 2 to 5 wavelengths, in at least three wells and in two independent experiments. […]
On the technique in general: PAMPA measures passive passage across an artificial lipid membrane.

As for `CC(C)NCC(O)COc1ccc(CC(N)=O)cc1` (stereo not shown) [Atenolol, reference compound], the apparent permeability (Papp) at 2.5 h is 1 ± 0.6 ×10⁻⁶ cm/s.

Source of the values: patent US11912678B2, “LRRK2 inhibiting compounds and use thereof for treating neurodegenerative diseases” (CONSEJO SUPERIOR DE INVESTIGACIONES CIENTÍFICAS, priority 2018, dated 2024).
